Data taken from patent US12215078B2, “Compositions and methods for protein labeling, modification, analysis, and targeted delivery” (University of Massachusetts, priority 2018, dated 2025).

Assay: Thiol-triggered declick of thiol/amine click products followed by NMR
Format: physicochemical
Conditions: in the presence of thiol
Description: Typically, product of thiol-A1 or amine-A1 click product was dissolved in single or mixed deuterated solvents (the volume of solvent depends on the solubility of A1 The volume of solvent depends on the solubility of click product). Then, thiol was added to the solution. The reaction was immediately followed by NMR.
Compound 17: 10 μmol (1 eq.) of 17 was dissolved in 500 μL of MeOH-d4 and 500 μL of 50 mM pH6.8 phosphate buffer. Then, 80 μmol (8 eq.) of thiol was added to the solution. Final concentration of 17 is 10 mM.
Compound 18: 10 μmol (1 eq.) of 18 was dissolved in 500 μL of MeOH-d4 and 500 μL of 50 mM pH7.4 phosphate buffer. Then, 80 μmol (8 eq.) of thiol was added to the solution. Final concentration of 18 is 10 mM.
Compound 19: 10 μmol (1 eq.) of 19 was dissolved in 500 μL of MeOH-d4 and 500 μL of 50 mM pH7.4 phosphate buffer. Then, 10 μmol (0.5 eq.) of thiol was added to the solution. Final concentration of 19 is 10 mM.
Compound 20: 10 μmol (1 eq.) of 20 was dissolved in 1000 μL of MeOH-d4 and 500 μL of 50 mM pH7.4 phosphate buffer. Then, 10 μmol (0.5 eq.) of thiol was added to the solution. Final concentration of 20 is 6.67 mM.
Compound 21: 10 μmol (1 eq.) of 21 was dissolved in 500 μL of MeOH-d4 and 500 μL of 50 mM pH7.4 phosphate buffer. Then, 10 μmol (0.5 eq.) of thiol was added to the solution. Final concentration of 21 is 10 mM.
Compound 22: 10 μmol (1 eq.) of 22 was dissolved in 500 μL of MeOH-d4 and 500 μL of 50 mM pH7.4 phosphate buffer. Then, 10 μmol (0.5 eq.) of thiol was added to the solution. Final concentration of 22 is 10 mM.
Compound 23: 10 μmol (1 eq.) of 23 was dissolved in 1000 μL of MeOH-d4 and 500 μL of 50 mM pH7.4 phosphate buffer. Then, 10 μmol (1 eq.) of thiol was added to the solution. Final concentration of 23 is 6.67 mM.
Compound 24: 10 μmol (1 eq.) of 24 was dissolved in 2000 μL of MeOH-d4 Then, 5 μmol (0.5 eq.) of thiol or amine was added to the solution. Final concentration of 24 is 5 mM.
Compound 25: 10 μmol (1 eq.) of 25 was dissolved in 1000 μL of MeOH-d4 and 500 μL of 50 mM pH7.4 phosphate buffer. Then, 5 μmol (0.5 eq.) of thiol was added to the solution. Final concentration of 25 is 6.67 mM.

SMILES	thiol-triggered declick (reversibility) of click product
C=C(CSCCOCCOC)C(=O)NC [Compound 19]	can all be reversed; also recorded: triggerable
CCSCC(=Cc1ccc(OC)cc1)C(=O)OC [Compound 22]	irreversible
C=C(C(=O)OC)C(SCC)c1ccc(Br)cc1 (stereo not drawn) [Compound 20]	can all be reversed; also recorded: triggerable
C=C(CSCCOCCOC)C(=O)OC [Compound 17]	can all be reversed
C=C(CN(CC(=C)C(=O)OC)Cc1ccccc1)C(=O)OC [Compound 23]	can all be reversed
CCSCC(=Cc1ccc(Br)cc1)C(=O)OC [Compound 21]	irreversible
C=C(C(=O)OC)C(NCc1ccccc1)c1ccc(OC)cc1 (stereo not drawn) [Compound 25]	can all be reversed; also recorded: triggerable
COC(=O)C(=Cc1ccc(OC)cc1)CN(CC(=Cc1ccc(OC)cc1)C(=O)OC)Cc1ccccc1 [Compound 24]	irreversible
C=C(CSCC)C(=O)OC [Compound 18]	can all be reversed; also recorded: triggerable

Entries after “also recorded” stand apart in the source; their conditions may differ.
